# Measured values taken from the supplement of paper PMC8728848.
# The other results are listed elsewhere or left out.
# How the values were obtained:
# Test in all cases: glycan array binding signal (z-score within array); higher = stronger binding
# Conditions in all cases: glycan notation: IUPAC condensed, linker removed
# [1] = biological target: Fuc(a1-3)[Gal3S(b1-4)]GlcNAc6S
# Outline: (§1)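 Glycan array data came from 3228 arrays in the Consortium for Functional Glycomics database, and only arrays with an available protein sequence were kept. Glycan names were put into IUPAC-condensed notation, and columns mapping to the same glycan were averaged. The binding signal is a within-array Z-score, averaged across arrays of one protein sequence run at different concentrations or buffers and across linkers. A negative Z-score can be read as non-binding.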
# [2] = biological target: Fuc(a1-3)[GalNAc(b1-4)]GlcNAc
# Outline: as §1
# [3] = biological target: Fuc(a1-3)[GalNAc(b1-4)]GlcNAc6S
# Outline: as §1
# [4] = biological target: Fuc(a1-4)GlcNAc
# Outline: as §1
# [5] = biological target: Fuc(b1-3)GlcNAc
# Outline: as §1
# [6] = biological target: Gal(a1-2)Gal
# Outline: as §1
# [7] = biological target: Gal(a1-3)Gal
# Outline: as §1
# [8] = biological target: Gal(a1-3)Gal(b1-3)GlcNAc
# Outline: as §1
# [9] = biological target: Gal(a1-3)Gal(b1-3)GlcNAc(b1-2)Man
# Outline: as §1
# [10] = biological target: Gal(a1-3)Gal(b1-3)GlcNAc(b1-2)Man(a1-3)[Gal(a1-3)Gal(b1-3)GlcNAc(b1-2)Man(a1-6)]Man(b1-4)GlcNAc(b1-4)GlcNAc
# Outline: as §1
# [11] = biological target: Gal(a1-3)Gal(b1-3)GlcNAc(b1-3)GalNAc
# Outline: as §1
# [12] = biological target: Gal(a1-3)Gal(b1-3)GlcNAc(b1-6)GalNAc
# Outline: as §1
# [13] = biological target: Gal(a1-3)Gal(b1-3)[Fuc(a1-4)]GlcNAc(b1-2)Man(a1-3)[Gal(a1-3)Gal(b1-3)[Fuc(a1-4)]GlcNAc(b1-2)Man(a1-6)]Man(b1-4)GlcNAc(b1-4)GlcNAc
# Outline: as §1
# [14] = biological target: Gal(a1-3)Gal(b1-4)Glc
# Outline: as §1
# [15] = biological target: Gal(a1-3)Gal(b1-4)GlcNAc
# Outline: as §1
# [16] = biological target: Gal(a1-3)Gal(b1-4)GlcNAc(b1-2)Man
# Outline: as §1
# [17] = biological target: Gal(a1-3)Gal(b1-4)GlcNAc(b1-2)Man(a1-3)[Gal(a1-3)Gal(b1-4)GlcNAc(b1-2)Man(a1-6)]Man(b1-4)GlcNAc(b1-4)GlcNAc
# Outline: as §1
# [18] = biological target: Gal(a1-3)Gal(b1-4)GlcNAc(b1-3)GalNAc
# Outline: as §1
# [19] = biological target: Gal(a1-3)Gal(b1-4)GlcNAc(b1-6)GalNAc
# Outline: as §1
# [20] = biological target: Gal(a1-3)Gal(b1-4)[Fuc(a1-3)]GlcNAc
# Outline: as §1
# [21] = biological target: Gal(a1-3)Gal(b1-4)[Fuc(a1-3)]GlcNAc(b1-2)Man(a1-3)[Gal(a1-3)Gal(b1-4)[Fuc(a1-3)]GlcNAc(b1-2)Man(a1-6)]Man(b1-4)GlcNAc(b1-4)GlcNAc
# Outline: as §1
# [22] = biological target: Gal(a1-3)GalNAc
# Outline: as §1
# [23] = biological target: Gal(a1-3)[Gal(a1-4)]Gal(b1-4)GlcNAc
# Outline: as §1
# [24] = biological target: Gal(a1-4)Gal(b1-3)GlcNAc(b1-2)Man(a1-3)[Gal(a1-4)Gal(b1-3)GlcNAc(b1-2)Man(a1-6)]Man(b1-4)GlcNAc(b1-4)GlcNAc
# Outline: as §1
# [25] = biological target: Gal(a1-4)Gal(b1-4)Glc
# Outline: as §1
# [26] = biological target: Gal(a1-4)Gal(b1-4)GlcNAc
# Outline: as §1
# [27] = biological target: Gal(a1-4)Gal(b1-4)GlcNAc(b1-2)Man(a1-3)[Gal(a1-4)Gal(b1-4)GlcNAc(b1-2)Man(a1-6)]Man(b1-4)GlcNAc(b1-4)GlcNAc
# Outline: as §1
# [28] = biological target: Gal(a1-4)Gal(b1-4)GlcNAc(b1-3)Gal(b1-4)Glc
# Outline: as §1
# [29] = biological target: Gal(a1-4)GlcNAc
# Outline: as §1
# [30] = biological target: Gal(a1-6)Glc
# Outline: as §1
# [31] = biological target: Gal(b1-2)Gal
# Outline: as §1
# [32] = biological target: Gal(b1-3)Gal
# Outline: as §1
# [33] = biological target: Gal(b1-3)Gal(b1-4)GlcNAc
# Outline: as §1
# [34] = biological target: Gal(b1-3)GalNAc
# Outline: as §1
# [35] = biological target: Gal(b1-3)GalNAc(a1-3)[Fuc(a1-2)]Gal(b1-4)Glc
# Outline: as §1
# [36] = biological target: Gal(b1-3)GalNAc(a1-3)[Fuc(a1-2)]Gal(b1-4)GlcNAc
# Outline: as §1
# [37] = biological target: Gal(b1-3)GalNAc(b1-3)Gal
# Outline: as §1
binder,measurement,setting,value
ArathEULS3 TAP (Arabidopsis thaliana) (protein) IDENLYFQGGSMDEKTTGWRGGHVVEGLAGELEQLRARLEHHPQGQREPGGGGSLEITSLYKKAGFMEHHHQHHRHHQRDDGEDDRQSFGVPPPHVDAPPQPHGLYQSQPHFDPYAPTPQAPAPYRSETQFEPHAPPPYRSEPYFETPAPPPSFGHVSHVGHQSPNESYPPEHHRYGGYQQPSNSLLESHGDHSGVTHVAHHSSNQPQSSSGVYHKPDENRLPDNLAGLAGRATVKVYSKAEPNYNLTIRDGKVILAPADPSDEAQHWYKDEKYSTKVKDADGHPCFALVNKATGEAMKHSVGATHPVHLIRYVPDKLDESVLWTESKDFGDGYRTIRMVNNTRLNVDAYHGDSKSGGVRDGTTIVLWDWNKGDNQLWKIFPF,glycan array binding signal (z-score),[1],0.828
same,glycan array binding signal (z-score),[2],-0.132
same,glycan array binding signal (z-score),[3],-1.06
same,glycan array binding signal (z-score),[4],0.629
same,glycan array binding signal (z-score),[5],-0.367
same,glycan array binding signal (z-score),[6],0.286
same,glycan array binding signal (z-score),[7],3.3
same,glycan array binding signal (z-score),[8],0.759
same,glycan array binding signal (z-score),[9],-0.176
same,glycan array binding signal (z-score),[10],0.528
same,glycan array binding signal (z-score),[11],0.549
same,glycan array binding signal (z-score),[12],-1.02
same,glycan array binding signal (z-score),[13],-0.432
same,glycan array binding signal (z-score),[14],0.637
same,glycan array binding signal (z-score),[15],-0.865
same,glycan array binding signal (z-score),[16],-0.475
same,glycan array binding signal (z-score),[17],0.075
same,glycan array binding signal (z-score),[18],0.809
same,glycan array binding signal (z-score),[19],0.057
same,glycan array binding signal (z-score),[20],-0.089
same,glycan array binding signal (z-score),[21],1.14
same,glycan array binding signal (z-score),[22],-0.474
same,glycan array binding signal (z-score),[23],2.15
same,glycan array binding signal (z-score),[24],-1.05
same,glycan array binding signal (z-score),[25],-0.92
same,glycan array binding signal (z-score),[26],0.331
same,glycan array binding signal (z-score),[27],0.15
same,glycan array binding signal (z-score),[28],0.556
same,glycan array binding signal (z-score),[29],-0.544
same,glycan array binding signal (z-score),[30],-1.74
same,glycan array binding signal (z-score),[31],0.438
same,glycan array binding signal (z-score),[32],-0.16
same,glycan array binding signal (z-score),[33],-0.374
same,glycan array binding signal (z-score),[34],-0.703
same,glycan array binding signal (z-score),[35],1.46
same,glycan array binding signal (z-score),[36],-0.662
same,glycan array binding signal (z-score),[37],-1.19

# Retrieved one by one from the list above (2):
binder,measurement,setting,value
ArathEULS3 TAP (Arabidopsis thaliana) (protein) IDENLYFQGGSMDEKTTGWRGGHVVEGLAGELEQLRARLEHHPQGQREPGGGGSLEITSLYKKAGFMEHHHQHHRHHQRDDGEDDRQSFGVPPPHVDAPPQPHGLYQSQPHFDPYAPTPQAPAPYRSETQFEPHAPPPYRSEPYFETPAPPPSFGHVSHVGHQSPNESYPPEHHRYGGYQQPSNSLLESHGDHSGVTHVAHHSSNQPQSSSGVYHKPDENRLPDNLAGLAGRATVKVYSKAEPNYNLTIRDGKVILAPADPSDEAQHWYKDEKYSTKVKDADGHPCFALVNKATGEAMKHSVGATHPVHLIRYVPDKLDESVLWTESKDFGDGYRTIRMVNNTRLNVDAYHGDSKSGGVRDGTTIVLWDWNKGDNQLWKIFPF,glycan array binding signal (z-score),[36],-0.662
same,glycan array binding signal (z-score),[19],0.057
